# Test results reported in ChEMBL document CHEMBL4513149, “CO-ADD screening of MMV (CH) - MMV compounds” (2021).
# Some of the results follow. Potency and affinity values are given separately.
# Tested on: Acinetobacter baumannii
# Settings: Concentration 20 uM; ASSAY_TEST Inhibition of Bacterial Growth; detection method Absorption (OD600); MEDIA CAMHB; plate type 384well; NBS; CORNING #3640; time 18 hr
row,SMILES,Inhibition [%]
1,CCc1ccc(C(NCc2nc(N)nc(N(C)C)n2)C(C)C)cc1 (centres undefined),8.61
2,Cc1cc2nc(NC(=O)C(C)(C)C)nc(Cl)c2n1Cc1ccc(Cl)cc1,5.01
3,CN1CCCN(C(c2ccccc2)c2ccc(Cl)cc2)CC1 (centres undefined) [HOMOCHLORCYCLIZINE],11.17
4,COc1ccc(C2=NN(C3CCCCCC3)C(=O)C2(C)C)cc1OCCCCOc1ccc(-c2nn[nH]n2)cc1,13.38
5,Cc1ccc2nc(Cl)c(CNCc3cccs3)cc2c1,3.22
6,Cc1ccc(NC(=O)c2cc(S(=O)(=O)NC(C)(C)C)ccc2C)nc1,13.83
7,CN1CCN(c2cc(-c3ccc(F)cc3)nc(-c3ccncc3)n2)CC1,6.73
8,O=C(NCCc1ccn(-c2ccccc2)n1)C1CCCCC1,10.96
9,Cc1ncc(-c2ccnc(Nc3ccc(S(C)(=O)=O)cc3)n2)n1C(C)C [AZD-5438],12.12
10,Cc1cc(Cl)ccc1NC(=O)CCc1ccc(S(=O)(=O)NCC(C)C)cc1,10.28
11,Cl.NCC(c1cccs1)S(=O)(=O)c1ccccc1 (centres undefined),4.77
12,Cc1cc(C)n2nc(C(=O)Nc3cc(C(F)(F)F)ccc3N3CCOCC3)nc2n1,13.07
13,Cc1cc(OCC(=O)NCc2ccccc2)c2cc(Br)ccc2n1,-1.87
14,CCCS(=O)(=O)N1CCC(CO)(Cc2ccccc2C(F)(F)F)CC1,8.39
15,Nc1ncnc2c1c(Cc1cccc3ccccc13)nn2CC1CCNCC1,4.89
16,C[C@H](C(N)=O)N1CCCC[C@@H]1c1ccc(OCc2cccc(F)c2)cc1,8.68
17,CC(C)(C)CN1C(=O)C(c2ccccc2)(c2ccccc2)N=C1N,15.35
18,CS(=O)(=O)c1cccc(-c2cnc3[nH]cc(-c4ccc(CCC(=O)O)cc4)c3c2)c1,9.12
19,CCOC(=O)c1cc(-c2csc(Nc3c(C)cc(C)cc3C)n2)on1,7.91
20,CN1CCN(c2nccc3nc(-c4ccc(F)c(F)c4)[nH]c23)CC1,9.15
21,NC(=O)c1cc(Br)ccc1OCCOc1ccccc1,-15.42
22,O=C(C1CCN(c2nnc(-n3cccc3)s2)CC1)N1CCC(Cc2ccccc2)CC1,8.47
23,O=C(Nc1c(O)cccc1-c1nc2c(C(=O)O)cccc2o1)c1cc(-c2ccccc2)on1,3.59

row,SMILES,Inhibition [%]
1,CCN(CC)CCCCCCNc1cc(OC)cc2c(C)ccnc12.Cc1ccc(S(=O)(=O)O)cc1,19.24
2,C[C@H](C(N)=O)N1CCCC[C@H]1c1ccc(OCc2cccc(F)c2)cc1,8.36
3,CN1CCC(c2cc(-c3ccncc3)c(-c3ccc(F)cc3)[nH]2)CC1,12.09
4,O=C(Nc1cccc(Cl)c1)c1cnc(N2CCN(c3ccncc3)CC2)c(Cl)c1,8.05
5,CC1(COc2ccc(N3CCC(Oc4ccc(OC(F)(F)F)cc4)CC3)cc2)Cn2cc([N+](=O)[O-])nc2O1 (centres undefined),8.97
6,CC(C(=O)Nc1ccc2oc(-c3ccncc3)nc2c1)c1ccccc1 (centres undefined),5.27
7,CCOc1ccc(OCC(=O)Nc2cc(C)cc(C)c2)cc1,0.05
8,Cc1cc(C)cc(COc2ccc3c(C)c(CCC(=O)O)c(=O)oc3c2C)c1,11.24
9,Nc1ncc(Br)cc1-c1nc2cc(Cl)cnc2[nH]1,11.57
10,CN(C(=O)c1cc2c(-c3cncnc3)cccc2[nH]1)c1ccccc1,-2.72
11,CN(C)CCNC(=O)N1CCCN(c2ncnc3cc(-c4ccccc4)sc23)CC1,11.59
12,Cn1ncc2c(N3CCOCC3)nc(NCCc3c[nH]c4ccccc34)nc21 [TDR79432],7.72
13,O=C(NCCN1CCCC1)c1cc(NCCN2CCOCC2)nc2ccc(Cl)cc12,9.33
14,O=C(NC1=NCCS1)c1sc2cc(F)ccc2c1Cl,10.08
15,O=C(Cn1ccnc1[N+](=O)[O-])NCc1ccccc1 [BENZNIDAZOLE],13.69
16,Cl.Cl.Cl.NS(=O)(=O)c1cncc(-c2ccc3nccc(-c4cn[nH]c4)c3n2)c1,2.72
17,FC(F)(F)c1ccc(N(c2cccnc2)C2CCN(c3ccc(C(F)(F)F)cn3)CC2)cc1,7.79
18,Clc1ccc(-n2cc(COc3ccnc4ccccc34)nn2)cc1,7.79
19,Clc1ccc(CCNc2cc(-c3ccccc3)nc3ncnn23)cc1,13.13
20,N#Cc1nc(-c2ccccc2)oc1S(=O)(=O)c1ccc(Cl)cc1,2.76
21,O=C(NCc1ccoc1)N1CCN(Cc2ccc3c(c2)OCO3)CC1,6.63
22,Cc1nn2c(O)c3c(nc2c1-c1ccc(F)cc1)CCCC3,11.04
23,COc1ccc(C2(C(=O)Nc3ccc(Br)cc3)CCCC2)cc1,-4.28

# Among those listed so far, these contain a nitro group on carbon.
row,SMILES,Inhibition [%]
5,CC1(COc2ccc(N3CCC(Oc4ccc(OC(F)(F)F)cc4)CC3)cc2)Cn2cc([N+](=O)[O-])nc2O1 (centres undefined),8.97
15,O=C(Cn1ccnc1[N+](=O)[O-])NCc1ccccc1 [BENZNIDAZOLE],13.69

# Structural class: the entries above containing a thiophene ring, fused or not.
row,SMILES,Inhibition [%]
5,Cc1ccc2nc(Cl)c(CNCc3cccs3)cc2c1,3.22
11,Cl.NCC(c1cccs1)S(=O)(=O)c1ccccc1 (centres undefined),4.77
11,CN(C)CCNC(=O)N1CCCN(c2ncnc3cc(-c4ccccc4)sc23)CC1,11.59
14,O=C(NC1=NCCS1)c1sc2cc(F)ccc2c1Cl,10.08

# (next part)

row,SMILES,Inhibition [%]
1,CC(C)(C)OC(=O)N1CCC(Cn2nc(-c3cnc4ccccc4c3)c3c(N)ncnc32)CC1,8.79
2,CC(C)C(NC(=O)Cc1cccc2ccccc12)C(=O)Nc1cccc(C#N)c1 (centres undefined),6.32
3,O=C(NC1CC1)c1ccc(N2CCC(Cc3ccccc3)CC2)nc1,14.76
4,Cc1nn(C(=O)Nc2cccc(C(F)(F)F)c2)c(C)c1Sc1ncccn1,4.58
5,COc1ccc(OC(C)C(=O)Nc2ccc(Cl)cc2C)cc1 (centres undefined),14.06
6,CN1CCC(NCc2cccc(-c3ccc(S(=O)(=O)NCc4ccccc4)cc3)c2)CC1,9.55
7,O=C(NC1CCCCC1)N1CCN(Cc2ccc3c(c2)OCO3)CC1,11.94
8,Cl.c1ccc(Oc2ccc(-c3cc(N4CCNCC4)[nH]n3)cc2)cc1,-8.75
9,CNC(=O)CNc1nc(-c2ccccn2)nc2scc(-c3ccccc3)c12,14.89
10,COc1cccc(-c2cc3c(Nc4cccnc4)nccc3[nH]2)c1,7.03
11,Cc1ccc(C(=O)Nc2ccc(S(=O)(=O)O)c3cc(S(=O)(=O)O)cc(S(=O)(=O)O)c23)cc1NC(=O)c1cccc(NC(=O)Nc2cccc(C(=O)Nc3cc(C(=O)Nc4ccc(S(=O)(=O)O)c5cc(S(=O)(=O)O)cc(S(=O)(=O)O)c45)ccc3C)c2)c1 [SURAMIN],10.42
12,Cc1cc(C(=O)Nc2cnn(Cc3ccc(Cl)cc3Cl)c2)no1,-1.31
13,Cl.NCCCC(N)(C(=O)O)C(F)F.O (centres undefined) [EFLORNITHINE HYDROCHLORIDE],6.34
14,C[C@H](c1ccc2c(c1)CCCC2)N(C)c1ncc2c(N)nc(N)nc2n1,15.43
15,Cc1ccccc1CN1CCC(O)(c2ccc(Cl)c(C(F)(F)F)c2)CC1,5.63
16,CCCCc1ccc(NC(=O)Nc2ccc(O[C@H]3CCCC[C@@H]3N(C)c3ccccc3)c(F)c2)cc1,12.41
17,CCOc1ccccc1C(=O)Nc1cccc(-c2nc3ncccn3c2C)c1,17.76
18,COc1cc(NC(=O)Cc2nn(C)c(=O)c3ccccc23)ccc1Cl,8.43
19,COc1ccccc1CNC(=O)c1cc(C2CC2)nc2c1cnn2C(C)C,2.44
20,CNC(=O)c1nn(C)c2c1C(C)(C)Cc1cnc(Nc3ccc(N4CCN(C)CC4)cc3)nc1-2 [MILCICLIB],2.31
21,CCC(Sc1nc2ccccc2o1)C(=O)Nc1nnc(C)s1 (centres undefined),7.01
22,Cl.O=C(Nc1ccc(N2CCNCC2)nc1)c1oc(-c2ccccc2)nc1C(F)(F)F,4.8
23,Cc1cccc(NC(=O)c2cc(S(=O)(=O)N(C)c3ccc(F)cc3)ccc2Cl)n1,9.94

row,SMILES,Inhibition [%]
1,N=C(N)c1ccc(-c2cc(-c3ccccc3)on2)cc1,12.3
2,O=C(NCc1cc(Cl)cc(Cl)c1)c1c(C(F)(F)F)nc2ccccn12,9.38
3,CS(=O)(=O)Cc1nc2ccccc2oc1=O,11.71
4,COc1ccc(-c2cncc3ccc(C(=O)NCCCn4ccnc4)nc23)cc1,-5.55
5,COc1ccc(Cn2cnc3c(-c4ccco4)nc(Cl)nc32)cc1,8.03
6,OCCc1ccc(Nc2nccc(-c3nnc4ccccn34)n2)cc1,7.9
7,CN(C)c1cc(NC(=O)Nc2ccccc2)c2ccccc2n1,14.06
8,CCN(CC)S(=O)(=O)c1ccc(Cl)c(C(=O)Nc2ccc3nc(C)sc3c2)c1,5.37
9,O=C1[C@@H](Oc2ccccc2)[C@@H](c2ccc(Cl)cc2)N1CCn1cnc2c(NCc3ccccc3)ncnc21,3.98
10,N#Cc1nc(-c2ccccc2F)oc1NCCc1ccccc1,6.21
11,Cc1ccc2nc(C)c(-c3ccn(Cc4ccccc4)n3)n2c1,2.02
12,COc1cc(-c2cc(-c3ccc(S(C)(=O)=O)cc3)cnc2N)ccc1O,-9.66
13,CNC1C(OC2C(OC3C(O)C(O)C(NC(=N)N)C(O)C3NC(=N)N)OC(C)C2(O)C=O)OC(CO)C(O)C1O.CNC1C(OC2C(OC3C(O)C(O)C(NC(=N)N)C(O)C3NC(=N)N)OC(C)C2(O)C=O)OC(CO)C(O)C1O.O=S(=O)(O)O.O=S(=O)(O)O.O=S(=O)(O)O (centres undefined),1.27
14,c1ccc(-c2[nH]c3ccccc3c2C(c2ccccn2)N2CCCC2)cc1 (centres undefined),10.19
15,Clc1ccc(Cl)c(CO[C@H]2CCCC[C@@H]2n2ccnc2)c1,15.2
16,Cc1cc(C)n(-c2ccc(NC(=O)C3CCN(Cc4cnc(C)s4)CC3)cc2)n1,8.93
17,O=C1N(Cc2cc3ccccc3s2)CC2CN(Cc3ccccc3)CCN12 (centres undefined),0.51
18,Cl.Cn1ccnc1CNCCS(=O)(=O)c1cccc(Nc2ccc(-c3cccc(F)c3)cn2)c1,8.57
19,Cc1cc(NC(=O)c2ccc(S(=O)(=O)N(Cc3ccccc3)C(C)C)cc2)no1,-3.71
20,CC1=Nc2ccc(Cl)cc2C(c2ccccc2)N1CCNC(=O)CN(C)C (centres undefined),8.88
